Results are given in words; binding and its absence hold for the method and conditions named. Some binding calls cover weakened binding; strength is not graded here. Where a sequence is shown, tags or fusion partners need not be part of it.

Assay in all cases: co-purification of the recombinant complex (SDS-PAGE, Coomassie); purified cohesin complex resolved by SDS-PAGE; purification methods in the Supplementary Information
Assay [1] addresses T1, Smc3^Psm3-CLIP-biotin subunit with the CLIP-tag within the hinge region (hinge-tagged cohesin variant) (fission yeast) (UniProt O42649).
T1 sequence (chain, biotin on the CLIP-tag): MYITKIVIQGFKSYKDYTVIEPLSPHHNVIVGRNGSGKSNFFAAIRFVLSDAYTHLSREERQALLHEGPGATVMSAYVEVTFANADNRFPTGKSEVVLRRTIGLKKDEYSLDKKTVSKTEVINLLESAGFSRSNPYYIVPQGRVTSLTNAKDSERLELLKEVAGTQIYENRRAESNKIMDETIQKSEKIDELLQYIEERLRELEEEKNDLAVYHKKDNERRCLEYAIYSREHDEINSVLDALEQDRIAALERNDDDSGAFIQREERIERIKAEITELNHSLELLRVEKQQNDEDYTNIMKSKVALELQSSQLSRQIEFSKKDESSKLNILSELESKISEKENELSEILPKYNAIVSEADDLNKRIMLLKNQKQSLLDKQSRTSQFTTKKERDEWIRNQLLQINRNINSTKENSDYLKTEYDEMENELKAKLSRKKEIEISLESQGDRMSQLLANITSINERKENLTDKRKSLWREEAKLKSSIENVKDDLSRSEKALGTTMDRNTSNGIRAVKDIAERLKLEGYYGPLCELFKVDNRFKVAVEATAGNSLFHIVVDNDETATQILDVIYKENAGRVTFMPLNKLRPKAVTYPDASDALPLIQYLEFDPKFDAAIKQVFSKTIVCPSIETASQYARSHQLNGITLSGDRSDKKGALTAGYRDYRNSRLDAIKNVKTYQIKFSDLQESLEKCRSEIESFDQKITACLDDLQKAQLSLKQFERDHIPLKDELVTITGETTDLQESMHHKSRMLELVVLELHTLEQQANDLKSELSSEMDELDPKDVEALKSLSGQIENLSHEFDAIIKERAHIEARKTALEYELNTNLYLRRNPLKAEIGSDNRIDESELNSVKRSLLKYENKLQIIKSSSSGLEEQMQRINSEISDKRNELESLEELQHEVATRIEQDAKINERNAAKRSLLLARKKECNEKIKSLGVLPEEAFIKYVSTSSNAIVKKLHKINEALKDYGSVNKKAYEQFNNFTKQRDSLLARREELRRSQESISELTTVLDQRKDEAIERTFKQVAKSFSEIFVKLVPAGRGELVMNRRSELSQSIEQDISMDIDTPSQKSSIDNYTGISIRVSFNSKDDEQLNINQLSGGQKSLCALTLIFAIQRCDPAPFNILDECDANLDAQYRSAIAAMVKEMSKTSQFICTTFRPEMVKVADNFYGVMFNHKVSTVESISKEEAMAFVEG

In assay [2] the target is T2, Smc3^Psm3-CLIP-biotin subunit of the fission yeast cohesin tetramer (head-tagged variant) (fission yeast) (UniProt O42649).
T2 sequence (chain, biotin on the CLIP-tag): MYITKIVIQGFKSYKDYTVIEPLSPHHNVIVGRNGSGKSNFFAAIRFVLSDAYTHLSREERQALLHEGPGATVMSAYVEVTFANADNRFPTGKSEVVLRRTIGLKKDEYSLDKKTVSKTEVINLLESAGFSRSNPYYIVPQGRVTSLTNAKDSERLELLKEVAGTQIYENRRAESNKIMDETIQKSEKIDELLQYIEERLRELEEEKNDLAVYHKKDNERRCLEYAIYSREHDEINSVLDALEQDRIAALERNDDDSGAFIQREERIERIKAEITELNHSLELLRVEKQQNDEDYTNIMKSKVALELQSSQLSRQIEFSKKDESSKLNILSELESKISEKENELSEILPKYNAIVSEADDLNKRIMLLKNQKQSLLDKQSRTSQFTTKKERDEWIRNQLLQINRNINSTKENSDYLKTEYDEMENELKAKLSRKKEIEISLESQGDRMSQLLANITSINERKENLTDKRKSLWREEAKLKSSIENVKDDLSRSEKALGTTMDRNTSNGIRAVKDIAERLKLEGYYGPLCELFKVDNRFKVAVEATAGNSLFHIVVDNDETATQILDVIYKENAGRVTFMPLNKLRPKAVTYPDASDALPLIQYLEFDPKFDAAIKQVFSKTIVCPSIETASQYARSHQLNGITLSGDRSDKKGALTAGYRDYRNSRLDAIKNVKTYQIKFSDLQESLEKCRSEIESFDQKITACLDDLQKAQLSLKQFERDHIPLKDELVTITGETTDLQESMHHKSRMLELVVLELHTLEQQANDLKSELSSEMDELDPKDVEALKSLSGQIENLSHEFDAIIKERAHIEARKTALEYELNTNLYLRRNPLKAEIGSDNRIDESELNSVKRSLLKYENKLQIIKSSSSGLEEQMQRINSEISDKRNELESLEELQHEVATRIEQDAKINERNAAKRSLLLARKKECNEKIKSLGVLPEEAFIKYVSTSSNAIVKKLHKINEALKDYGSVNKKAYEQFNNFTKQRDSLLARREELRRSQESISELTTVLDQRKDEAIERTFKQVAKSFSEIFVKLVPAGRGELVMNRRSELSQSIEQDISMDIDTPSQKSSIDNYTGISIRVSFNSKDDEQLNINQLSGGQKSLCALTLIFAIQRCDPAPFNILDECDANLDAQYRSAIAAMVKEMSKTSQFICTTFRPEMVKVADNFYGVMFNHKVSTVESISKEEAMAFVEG

Assay [3] addresses T3, Smc1^Psm1-SNAP subunit of the fission yeast cohesin tetramer (head-tagged variant, TMR-labelled) (fission yeast) (UniProt O94383).
T3 sequence (chain, TMR fluorophore on the SNAP-tag): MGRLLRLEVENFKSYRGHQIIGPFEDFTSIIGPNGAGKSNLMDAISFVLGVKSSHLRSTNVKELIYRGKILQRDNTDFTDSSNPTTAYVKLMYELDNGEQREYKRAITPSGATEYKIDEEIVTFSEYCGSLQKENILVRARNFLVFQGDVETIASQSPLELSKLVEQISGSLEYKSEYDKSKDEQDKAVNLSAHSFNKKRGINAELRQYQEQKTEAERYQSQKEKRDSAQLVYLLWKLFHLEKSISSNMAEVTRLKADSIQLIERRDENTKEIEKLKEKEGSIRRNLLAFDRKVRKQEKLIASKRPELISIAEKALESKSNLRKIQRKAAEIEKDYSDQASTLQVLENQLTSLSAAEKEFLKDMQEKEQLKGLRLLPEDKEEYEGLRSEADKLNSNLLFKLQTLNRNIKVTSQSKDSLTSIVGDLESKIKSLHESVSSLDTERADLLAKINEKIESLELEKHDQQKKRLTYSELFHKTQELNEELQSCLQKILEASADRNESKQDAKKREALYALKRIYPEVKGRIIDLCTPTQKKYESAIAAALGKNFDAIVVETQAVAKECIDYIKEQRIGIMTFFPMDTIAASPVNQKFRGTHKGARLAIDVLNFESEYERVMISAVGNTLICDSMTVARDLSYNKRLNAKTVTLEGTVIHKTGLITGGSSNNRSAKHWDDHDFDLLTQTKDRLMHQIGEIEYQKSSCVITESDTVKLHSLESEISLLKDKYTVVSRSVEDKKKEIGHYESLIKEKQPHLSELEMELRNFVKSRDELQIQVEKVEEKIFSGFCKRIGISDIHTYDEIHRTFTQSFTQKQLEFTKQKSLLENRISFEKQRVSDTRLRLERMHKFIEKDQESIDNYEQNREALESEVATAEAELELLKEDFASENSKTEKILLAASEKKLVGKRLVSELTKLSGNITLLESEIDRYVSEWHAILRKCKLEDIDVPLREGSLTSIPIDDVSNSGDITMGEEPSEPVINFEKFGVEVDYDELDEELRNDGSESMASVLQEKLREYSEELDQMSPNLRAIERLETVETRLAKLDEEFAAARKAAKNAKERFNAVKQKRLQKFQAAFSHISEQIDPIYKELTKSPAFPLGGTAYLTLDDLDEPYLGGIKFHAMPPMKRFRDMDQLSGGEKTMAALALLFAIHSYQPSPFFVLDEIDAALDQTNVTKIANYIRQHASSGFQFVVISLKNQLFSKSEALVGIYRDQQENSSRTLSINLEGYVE

B1: Smc1^Psm1-SNAP subunit with the SNAP-tag within the hinge region (hinge-tagged cohesin variant, TMR-labelled) (protein, UniProt O94383 1-1228)
chain: MGRLLRLEVENFKSYRGHQIIGPFEDFTSIIGPNGAGKSNLMDAISFVLGVKSSHLRSTNVKELIYRGKILQRDNTDFTDSSNPTTAYVKLMYELDNGEQREYKRAITPSGATEYKIDEEIVTFSEYCGSLQKENILVRARNFLVFQGDVETIASQSPLELSKLVEQISGSLEYKSEYDKSKDEQDKAVNLSAHSFNKKRGINAELRQYQEQKTEAERYQSQKEKRDSAQLVYLLWKLFHLEKSISSNMAEVTRLKADSIQLIERRDENTKEIEKLKEKEGSIRRNLLAFDRKVRKQEKLIASKRPELISIAEKALESKSNLRKIQRKAAEIEKDYSDQASTLQVLENQLTSLSAAEKEFLKDMQEKEQLKGLRLLPEDKEEYEGLRSEADKLNSNLLFKLQTLNRNIKVTSQSKDSLTSIVGDLESKIKSLHESVSSLDTERADLLAKINEKIESLELEKHDQQKKRLTYSELFHKTQELNEELQSCLQKILEASADRNESKQDAKKREALYALKRIYPEVKGRIIDLCTPTQKKYESAIAAALGKNFDAIVVETQAVAKECIDYIKEQRIGIMTFFPMDTIAASPVNQKFRGTHKGARLAIDVLNFESEYERVMISAVGNTLICDSMTVARDLSYNKRLNAKTVTLEGTVIHKTGLITGGSSNNRSAKHWDDHDFDLLTQTKDRLMHQIGEIEYQKSSCVITESDTVKLHSLESEISLLKDKYTVVSRSVEDKKKEIGHYESLIKEKQPHLSELEMELRNFVKSRDELQIQVEKVEEKIFSGFCKRIGISDIHTYDEIHRTFTQSFTQKQLEFTKQKSLLENRISFEKQRVSDTRLRLERMHKFIEKDQESIDNYEQNREALESEVATAEAELELLKEDFASENSKTEKILLAASEKKLVGKRLVSELTKLSGNITLLESEIDRYVSEWHAILRKCKLEDIDVPLREGSLTSIPIDDVSNSGDITMGEEPSEPVINFEKFGVEVDYDELDEELRNDGSESMASVLQEKLREYSEELDQMSPNLRAIERLETVETRLAKLDEEFAAARKAAKNAKERFNAVKQKRLQKFQAAFSHISEQIDPIYKELTKSPAFPLGGTAYLTLDDLDEPYLGGIKFHAMPPMKRFRDMDQLSGGEKTMAALALLFAIHSYQPSPFFVLDEIDAALDQTNVTKIANYIRQHASSGFQFVVISLKNQLFSKSEALVGIYRDQQENSSRTLSINLEGYVE
modifications: TMR fluorophore on the SNAP-tag
Consider B1, for which the binding entry in assay [1] is “binds”.

B2: Scc1^Rad21 kleisin subunit of the fission yeast cohesin tetramer (protein, UniProt P30776 1-628)
chain: MFYSEAILSKKGPLAKVWLAAHWEKKLSKVQTLHTSIEQSVHAIVTEETAPMALRLSGQLMLGVVRIYSRKARYLLEDCTEALMRLKMSFQPGQVDMIEPATALQSLKGKDAVTQSANLTLPETITEFDLLVPDSTFDFQWSQLLRTPSRSSNTLELHSLPISSSPSFPSSQLSIEAGRNAQVESGFSLGESFAHVGNDMQFHLPISNSGAATPRSVHSDNQSQISIEVGRDAPAAAATDLSGIIGPQMTKSPASSVTHFSTPSMLPIGGTSLDDELLAPVDDLNLDLGLDDLLGDEQGANAPAIEADEQAETSSIHLPSDIMEDDSSRPAAAGVEEGQVVESATAPQQEKINPQKTVRRQRAIIDPVTELSSKQMKKQLADTSSITSPLCLNTSSIVFNATVNFTRNGKFNTSIFSSNLNPKVNELLQADFKQAILRKRKNESPEEVEPAKHQRTDTSTENQETAEVLDPEEIAAAELANITEAAIATLPQETVVQPEGEAPELGSPMGFPVTALESADDSLFDAPPVMLDEADLLGSERLDSSVSEALPSSQTAKDSLRNKWDPYTEGEKVSFQTLSAGCNREEAVQLFFDVLVLATKDVISVKQDVAIQNEITLTAKRGMLLSSL
With B2, the binding entry in assay [2] and in assay [3] was “binds” each time.

Source of the values: article PMC11377297, “Mechanical disengagement of the cohesin ring” (Nature Structural & Molecular Biology, 2023).
